From paper PMC6150519
Like-named read-outs stand apart in the source and are kept apart here. Results are given in words; binding and its absence hold for the method and conditions named. In cells and extracts the contact can be indirect. For some assays here: Tags and fused reporters may be left off the sequences shown.

Chains of the proteins cited; added tags and fusions are not shown. Lines headed by an entry give the natural chain unless they say otherwise; changes in a name come on top.
UniProt B2RSH2: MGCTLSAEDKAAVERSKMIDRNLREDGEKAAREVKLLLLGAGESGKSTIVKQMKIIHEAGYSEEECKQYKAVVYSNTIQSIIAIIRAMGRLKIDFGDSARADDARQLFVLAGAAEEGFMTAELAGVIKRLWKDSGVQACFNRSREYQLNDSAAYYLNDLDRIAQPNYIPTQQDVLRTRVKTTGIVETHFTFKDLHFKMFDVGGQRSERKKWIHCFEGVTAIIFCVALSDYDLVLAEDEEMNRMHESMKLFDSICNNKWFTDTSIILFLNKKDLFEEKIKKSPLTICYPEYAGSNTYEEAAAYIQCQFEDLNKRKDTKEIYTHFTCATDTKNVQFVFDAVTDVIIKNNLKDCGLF
UniProt P04761: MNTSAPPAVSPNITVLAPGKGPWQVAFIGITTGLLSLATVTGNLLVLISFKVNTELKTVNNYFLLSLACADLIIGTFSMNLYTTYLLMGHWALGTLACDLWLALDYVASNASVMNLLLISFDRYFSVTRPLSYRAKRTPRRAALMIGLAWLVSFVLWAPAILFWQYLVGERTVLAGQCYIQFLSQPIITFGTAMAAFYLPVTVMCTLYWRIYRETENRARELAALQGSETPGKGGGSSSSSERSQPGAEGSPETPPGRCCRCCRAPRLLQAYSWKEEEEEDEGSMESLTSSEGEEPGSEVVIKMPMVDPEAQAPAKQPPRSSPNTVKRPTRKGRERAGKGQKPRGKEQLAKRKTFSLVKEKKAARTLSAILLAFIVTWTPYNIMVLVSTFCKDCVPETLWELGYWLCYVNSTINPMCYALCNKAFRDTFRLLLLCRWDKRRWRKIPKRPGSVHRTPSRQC

Key:
[1] = molecular target: Gαi1-CFP (mouse) (UniProt B2RSH2); assay: FRET or BRET; acceptor bleaching under TIRF illumination in living HEK293T cells; FRET from Gαi1-CFP to receptor-YFP (or prestin-YFP), cells transfected together with Gβ1 and Gγ2; absence or presence of oxo-M (10 uM)
[2] = molecular target: Gαi1-CFP (mouse) (UniProt B2RSH2); assay: as above; remark: listed apart in the source

binding [1]	binding [2]	Molecule
no binding		M1R-YFP (from UniProt P04761 1-460) (receptor)
	no binding	prestin-YFP (protein, UniProt Q9EPH0 1-744) MDHAEENEIPAETQKYLVERPIFSHPVLQERLHVKDKVTDSIGDKLKQAFTCTPKKVRNIIYMFLPITKWLPAYKFKEYVLGDLVSGISTGVLQLPQGLAFAMLAAVPPVFGLYSSFYPVIMYCFFGTSRHISIGPFAVISLMIGGVAVRLVPDDIVIPGGVNATNGTEARDALRVKVAMSVTLLSGIIQFCLGVCRFGFVAIYLTEPLVRGFTTAAAVHVFTSMLKYLFGVKTKRYSGIFSVVYSTVAVLQNVKNLNVCSLGVGLMVFGLLLGGKEFNERFKEKLPAPIPLEFFAVVMGTGISAGFNLHESYSVDVVGTLPLGLLPPANPDTSLFHLVYVDAIAIAIVGFSVTISMAKTLANKHGYQVDGNQELIALGICNSIGSLFQTFSISCSLSRSLVQEGTGGKTQLAGCLASLMILLVILATGFLFESLPQAVLSAIVIVNLKGMFMQFSDLPFFWRTSKIELTIWLTTFVSSLFLGLDYGLITAVIIALLTVIYRTQSPSYTVLGQLPDTDVYIDIDAYEEVKEIPGIKIFQINAPIYYANSDLYSSALKRKTGVNPAIIMGARRKAMRKYAKEVGNANIANATVVKVDAEVDGENATKPEEEDDEVKFPPIVIKTTFPEELQRFLPQGENIHTVILDFTQVNFMDSVGVKTLAGIVKEYGDVGIYVYLAGCSAQVVNDLTSNRFFENPALKELLFHSIHDAVLGSQVREAMAEQETTVLPPQEDMEPNATPTTPEA
